Measurements from PubChem BioAssay AID330 (DTP/NCI, 2004).
The list does not hold the whole screen: it gathers tests that were run many times, whatever their T/C, doses with no T/C, and many T/C values between a quarter and a half above the control. Further doses and runs are listed elsewhere. T/C gives the treated animals as a percentage of the vehicle group. Some entries give survivors of the animals treated and no T/C: the source files T/C as zero there, which appears to mark a toxic dose or a test without result, not a measured value. Some doses without a T/C left all or most animals alive at the check, yet need not have been tolerated: survival well below the control is almost never listed, so the zero probably covers shortened survival too. Survivors were counted at the toxicity check, usually on the fifth day, unless a day is given; later deaths do not show. Schedules are NCI's codes, taken here to give the interval after Q, in days (D) or hours (H), and the number of doses after X. Some entries hold several experiments; the results are listed from low to high. Where survival is the endpoint, the PubChem record calls one and a half times the control and up active, and a quarter to a half above the control has no call in these data; cut-offs in other NCI protocols can differ. Brackets with × give the number of equal values in this list. Some T/C values are followed by the survivors on the day toxicity was checked, most often the fifth; where none is given, no animal had died by that day.

Test system: P388 leukemia ip, CD2F1 mice, survival T/C
Assay: NCI In Vivo Anticancer Drug Screen. Data for tumor model P388 Leukemia (intraperitoneal) in CD2F1 (CDF1) mice
Conditions: T/C endpoint: median survival time, higher T/C = longer survival
[1] = dose: 50.0 mg/kg/injection, schedule: Q01DX005 (ip), vehicle: Klucel (hydroxypropylcellulose) (HPC)
[2] = dose: 100.0 mg/kg/injection, schedule: Q01DX005 (ip), vehicle: Klucel (hydroxypropylcellulose) (HPC)
[3] = dose: 200.0 mg/kg/injection, schedule: Q01DX005 (ip), vehicle: Klucel (hydroxypropylcellulose) (HPC)
[4] = dose: 25.0 mg/kg/injection, schedule: Q01DX009 (ip), vehicle: saline with Tween-80
[5] = dose: 50.0 mg/kg/injection, schedule: Q01DX009 (ip), vehicle: saline with Tween-80
[6] = dose: 400.0 mg/kg/injection, schedule: Q04DX002 (ip), vehicle: saline with Tween-80
[7] = dose: 50.0 mg/kg/injection, schedule: Q04DX002 (ip), vehicle: saline with Tween-80
[8] = dose: 6.25 mg/kg/injection, schedule: Q04DX003 (ip), vehicle: saline
[9] = dose: 50.0 mg/kg/injection, schedule: Q01DX009 (ip), vehicle: Klucel (hydroxypropylcellulose) (HPC)
[10] = dose: 200.0 mg/kg/injection, schedule: Q01DX009 (ip), vehicle: Klucel (hydroxypropylcellulose) (HPC)

`FC(F)(F)C1(C(F)(F)F)OI2(Br)(OC(C(F)(F)F)(C(F)(F)F)c3ccccc32)c2ccccc21` was tested, and the survivor count (dose: 25.0 mg/kg/injection, schedule: Q01DX005 (ip), vehicle: Klucel (hydroxypropylcellulose) (HPC)) was 0 of 6, the survivor count [1] was 0 of 6 and the survivor count [2] was 0 of 6. The survivor count [3] was 0 of 6.
For `CCN(CC)CCOC(=O)Cc1cccc2c(=O)cc(-c3ccc(OC)cc3)oc12`, the T/C [1] was 138 % of control, the T/C [2] was 127 % of control [5 of 6 alive] and the survivor count [3] was 1 of 6.
For `CCC12CCCN3CCC4(c5ccc(OC)cc5N(C)C4C(O)(OC(C)=O)C1OC(C)O)C32` (stereo not drawn), the survivor count (dose: 200.0 mg/kg/injection, schedule: Q01DX005 (ip), vehicle: saline with Tween-80) was 1 of 6.
In the case of `O=C(CC(=O)c1ccccc1)c1ccccc1.[Tl]`, the survivor count [4] is reported as 6 of 6 and the survivor count [5] is reported as 4 of 6.
In the case of `Nc1[nH]c(=S)[nH]c(=O)c1NS(=O)(=O)c1ccccc1`, the T/C (dose: 120.0 mg/kg/injection, schedule: Q01DX005 (ip), vehicle: Klucel (hydroxypropylcellulose) (HPC)) is reported as 142 % of control and the T/C (dose: 240.0 mg/kg/injection, schedule: Q01DX005 (ip), vehicle: Klucel (hydroxypropylcellulose) (HPC)) is reported as 149 % of control.
For `c1ccc2nc(-c3cnc4ccccc4n3)cnc2c1`, the survivor count [6] was 6 of 6.
`COc1cc2c(c3oc4c(O)cccc4c(=O)c13)CC(C(C)(O)CCl)O2` (stereo not drawn) was tested, and the T/C (dose: 8.0 mg/kg/injection, schedule: Q01DX009 (ip), vehicle: saline + alcohol) was 132 % of control.
With `COc1cc(N=Nc2cccc(C(=O)O)c2)ccc1N(CCCl)CCCl` the T/C (dose: 6.25 mg/kg/injection, schedule: Q01DX009 (ip), vehicle: saline with Tween-80) was 128 % of control, the T/C (dose: 12.5 mg/kg/injection, schedule: Q01DX009 (ip), vehicle: saline with Tween-80) was 128 % of control and the T/C [4] was 130 % of control. For the same compound, the survivor count [5] was 6 of 6, the survivor count (dose: 100.0 mg/kg/injection, schedule: Q01DX009 (ip), vehicle: saline with Tween-80) was 4 of 6 and the survivor count (dose: 200.0 mg/kg/injection, schedule: Q01DX009 (ip), vehicle: saline with Tween-80) was 0 of 6.
In the case of `CNC1CC2OC(C)(C1OC)n1c3ccccc3c3c4c(c5c6ccccc6n2c5c31)C(=O)NC4` (stereo not drawn), the survivor count (dose: 3.0 mg/kg/injection, schedule: Q01DX005 (ip), vehicle: water) is reported as 5 of 6 and the survivor count (dose: 6.0 mg/kg/injection, schedule: Q01DX005 (ip), vehicle: water) is reported as 0 of 6.
`Cc1cc(NCCN(C(C)C)C(C)C)nc(/N=C(\N)Nc2ccc(Cl)c(C(F)(F)F)c2)n1` was tested, and the T/C (dose: 20.0 mg/kg/injection, schedule: Q04DX003 (ip), vehicle: Klucel (hydroxypropylcellulose) (HPC)) was 126 % of control and the T/C (dose: 40.0 mg/kg/injection, schedule: Q04DX003 (ip), vehicle: Klucel (hydroxypropylcellulose) (HPC)) was 136 and 140 % of control.
With `CN=C(N)N/N=C(\c1ccccc1)c1ccc(Br)cc1` the T/C (dose: 12.5 mg/kg/injection, schedule: Q04DX002 (ip), vehicle: saline with Tween-80) was 95, 105, 106 % of control (2×), the T/C (dose: 25.0 mg/kg/injection, schedule: Q04DX002 (ip), vehicle: saline with Tween-80) was 108 (2×), 126, 167 % of control [5 of 6 alive] and the T/C [7] was 129, 131, 178 % of control. For the same compound, the survivor count [7] was 5 of 6 and the survivor count (dose: 100.0 mg/kg/injection, schedule: Q04DX002 (ip), vehicle: saline with Tween-80) was 0 of 6 and 6 of 6.
`O=CC1N=C1c1ccccc1` (stereo not drawn) was tested, and the survivor count (dose: 400.0 mg/kg/injection, schedule: Q01DX001 (ip), vehicle: Klucel (hydroxypropylcellulose) (HPC)) was 3 of 6.
With `CC[CH2][Sn]([F])([F])[CH2]CC` the T/C (dose: 3.12 mg/kg/injection, schedule: Q04DX003 (ip), vehicle: saline) was 128 % of control, the T/C [8] was 129 % of control and the survivor count [8] was 0 of 6. The survivor count (dose: 25.0 mg/kg/injection, schedule: Q04DX003 (ip), vehicle: saline) was 0 of 6, the survivor count (dose: 100.0 mg/kg/injection, schedule: Q04DX003 (ip), vehicle: saline) was 0 of 6 and the survivor count (dose: 200.0 mg/kg/injection, schedule: Q04DX003 (ip), vehicle: saline) was 0 of 6. The survivor count (dose: 400.0 mg/kg/injection, schedule: Q04DX003 (ip), vehicle: saline) was 0 of 6.
For `CC(c1c[nH]c2ccccc12)N1CCCCC1` (stereo not drawn), the survivor count (dose: 100.0 mg/kg/injection, schedule: Q01DX009 (ip), vehicle: Klucel (hydroxypropylcellulose) (HPC)) was 0 of 6.
`COc1cc2c(Cc3ccc(OC)c(OC)c3)[n+](Cc3ccccc3)ccc2cc1NCc1ccccc1` was tested, and the T/C (dose: 3.13 mg/kg/injection, schedule: Q01DX009 (ip), vehicle: Klucel (hydroxypropylcellulose) (HPC)) was 131 % of control, the T/C (dose: 6.25 mg/kg/injection, schedule: Q01DX009 (ip), vehicle: Klucel (hydroxypropylcellulose) (HPC)) was 145 % of control and the T/C (dose: 12.5 mg/kg/injection, schedule: Q01DX009 (ip), vehicle: Klucel (hydroxypropylcellulose) (HPC)) was 130 and 136 % of control. The survivor count (dose: 25.0 mg/kg/injection, schedule: Q01DX009 (ip), vehicle: Klucel (hydroxypropylcellulose) (HPC)) was 5 of 6 and the survivor count [9] was 0 of 6.
For `Nc1ccc(N)c2c1C(=O)c1ccccc1C2=O`, the survivor count [10] was 6 of 6 and the survivor count (dose: 400.0 mg/kg/injection, schedule: Q01DX009 (ip), vehicle: Klucel (hydroxypropylcellulose) (HPC)) was 6 of 6.
In the case of `CC1=NC(=O)C(N=O)C(=O)N1` (stereo not drawn), the survivor count [6] is reported as 0 of 6.
With `CCN(CC)CCCC(C)Nc1cc(C)nc2c1ccc1c2ccc2c(NC(C)CCCN(CC)CC)cc(C)nc21` (stereo not drawn) the survivor count (dose: 50.0 mg/kg/injection, schedule: Q01DX009 (ip), vehicle: distilled water + Tween-80) was 1 of 6 and the survivor count (dose: 100.0 mg/kg/injection, schedule: Q01DX009 (ip), vehicle: distilled water + Tween-80) was 0 of 6.
`NC(=O)c1ncn(C2OC(COP(=O)(O)O)C(O)C2O)n1` (stereo not drawn) was tested, and the survivor count (dose: 400.0 mg/kg/injection, schedule: Q01DX009 (ip), vehicle: saline) was 2 of 6 and 6 of 6.
With `CC1=CC2N(C=C1)C(c1cccc([N+](=O)[O-])c1)=NON2c1cc(C)ccn1` (stereo not drawn) the survivor count (dose: 50.0 mg/kg/injection, schedule: Q01DX005 (ip), vehicle: saline with Tween-80) was 6 of 6.
With `NC(=S)N/N=C/c1nc2ccccn2c1[N+](=O)[O-]` the survivor count [9] was 6 of 6 and the survivor count [10] was 6 of 6.
`CNC(=O)Nc1ccn(C(=O)NC)c(=O)n1` was tested, and the survivor count (dose: 400.0 mg/kg/injection, schedule: Q04DX002 (ip), vehicle: Klucel (hydroxypropylcellulose) (HPC)) was 2 of 6.
For `O=[N+]([O-])c1ccc(C2=Nc3ccccc3N=C(c3ccccc3O)C2)cc1`, the survivor count (dose: 7.5 mg/kg/injection, schedule: Q01DX005 (ip), vehicle: saline with Tween-80) was 6 of 6, the survivor count (dose: 15.0 mg/kg/injection, schedule: Q01DX005 (ip), vehicle: saline with Tween-80) was 6 of 6 and the survivor count (dose: 30.0 mg/kg/injection, schedule: Q01DX005 (ip), vehicle: saline with Tween-80) was 6 of 6. The survivor count (dose: 60.0 mg/kg/injection, schedule: Q01DX005 (ip), vehicle: saline with Tween-80) was 6 of 6 and the survivor count (dose: 120.0 mg/kg/injection, schedule: Q01DX005 (ip), vehicle: saline with Tween-80) was 4 of 6.
For `COC1/C=C\C=C(/C)C(=O)NC2=CC(=O)C(NC3CC3)=C(CC(C)CC(OC)C(O)C(C)/C=C(/C)C1OC(N)=O)C2=O` (stereo not drawn), the survivor count (dose: 150.0 mg/kg/injection, schedule: Q04DX002 (ip), vehicle: saline with Tween-80) was 2 of 6 and the survivor count (dose: 200.0 mg/kg/injection, schedule: Q04DX002 (ip), vehicle: saline with Tween-80) was 1 of 6.
`COc1cc2cc[n+]3c(C)c4ccc(OC)c(OC)c4cc3c2cc1OC` (tested in a mixture with another compound) was tested, and the T/C (dose: 10.0 mg/kg/injection, schedule: Q01DX009 (ip), vehicle: saline) was 141 % of control (2×) and the T/C (dose: 20.0 mg/kg/injection, schedule: Q01DX009 (ip), vehicle: saline) was 145 % of control.
With `O=C(/C=C/c1ccc(Cl)c(Cl)c1)C1CCCCC1` the survivor count [10] was 5 of 6.
